According to the supplement of paper PMC4604168 (melanoma cell lines):
This is one part of the list. Single values are uncertain, as repeats are few or missing.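 Cells were imaged in 1,536-well plates, and nuclei stained with an antibody against cleaved PARP were counted against all DNA-stained nuclei to give the apoptosis fraction. Screening doses were chosen to leave most cells alive, and resting and induced cleaved-PARP levels differ strongly between cell lines.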

Columns and labels:
Test in all cases: cleaved PARP positive nuclei fraction relative to DMSO control; melanoma cells; higher = more apoptosis
Details in all cases: library dose: low library concentration; 72 h
501Mel = system: 501Mel
A101D = system: A101D
A2058 = system: A2058
A375 = system: A375
C32 = system: C32
CBRC008 = system: CBRC008 (line from a melanoma biopsy)
CBRC013 = system: CBRC013 (line from a melanoma biopsy)
CBRC014 = system: CBRC014 (line from a melanoma biopsy)
CBRC016 = system: CBRC016 (line from a melanoma biopsy)
CBRC017 = system: CBRC017 (line from a melanoma biopsy)
COLO792 = system: COLO792
COLO800 = system: COLO800
COLO829 = system: COLO829
G361 = system: G361
IPC-298 = system: IPC-298
IST-MEL1 = system: IST-MEL1
LB2518-MEL = system: LB2518-MEL
LOXIMVI = system: LOXIMVI
MEL-HO = system: MEL-HO

SMILES | cleaved PARP positive nuclei fraction (501Mel) [%] | cleaved PARP positive nuclei fraction (A101D) [%] | cleaved PARP positive nuclei fraction (A2058) [%] | cleaved PARP positive nuclei fraction (A375) [%] | cleaved PARP positive nuclei fraction (C32) [%] | cleaved PARP positive nuclei fraction (CBRC008) [%] | cleaved PARP positive nuclei fraction (CBRC013) [%] | cleaved PARP positive nuclei fraction (CBRC014) [%] | cleaved PARP positive nuclei fraction (CBRC016) [%] | cleaved PARP positive nuclei fraction (CBRC017) [%] | cleaved PARP positive nuclei fraction (COLO792) [%] | cleaved PARP positive nuclei fraction (COLO800) [%] | cleaved PARP positive nuclei fraction (COLO829) [%] | cleaved PARP positive nuclei fraction (G361) [%] | cleaved PARP positive nuclei fraction (IPC-298) [%] | cleaved PARP positive nuclei fraction (IST-MEL1) [%] | cleaved PARP positive nuclei fraction (LB2518-MEL) [%] | cleaved PARP positive nuclei fraction (LOXIMVI) [%] | cleaved PARP positive nuclei fraction (MEL-HO) [%]
Nc1ccn([C@@H]2O[C@H](CO)[C@@H](O)C2(F)F)c(=O)n1 [gemcitabine] + CC1(C)NC(=O)N(c2ccc([N+](=O)[O-])c(C(F)(F)F)c2)C1=O [nilutamide] (first compound 0.0004 µM, partner dose 1 µM) | 179 | 72.7 | 75.2 | 145 | 102 | 216 | 127 | 118 | 198 | 88.8 | 74.9 | 195 | 140 | 108 | 49.7 | 44.8 | 103 | 116 | 311
O=C(O)[C@@H]1[O][Sb](=[O])([O][Sb]2(=[O])[O][C@H]([C@H](O)CO)[C@H](O)[C@H](C(=O)O)[O]2)[O][C@H]([C@H](O)CO)[C@@H]1O (some centres undefined) [stibogluconate] + C[C@@H]1CCN(C(=O)CC#N)C[C@@H]1N(C)c1ncnc2[nH]ccc12 [CP690550] (first compound 2 µM, partner dose 1 µM) | 127 | 80.4 | 70.6 | 80 | 39.7 | 91.4 | 94.2 | 72.8 | 95.9 | 83.2 | 103 | 76.9 | 61.6 | 64.2 | 57.2 | 94.8 | 91.8 | 33.8 | 30.2
Cn1c(=O)n(-c2ccc(C(C)(C)C#N)cc2)c2c3cc(-c4cnc5ccccc5c4)ccc3ncc21 + C[C@@H]1CCN(C(=O)CC#N)C[C@@H]1N(C)c1ncnc2[nH]ccc12 [CP690550] (first compound 0.004 µM, partner dose 1 µM) | 96.2 | 36.3 | 21.4 | 64.2 | 47.8 | 56.2 | 75.4 | 80 | 90 | 80.3 | 80.6 | 42.3 | 111 | 103 | 47.5 | 49.2 | 82.8 | 95.3 | 137
Cn1c(=O)n(-c2ccc(C(C)(C)C#N)cc2)c2c3cc(-c4cnc5ccccc5c4)ccc3ncc21 + CC1(C)NC(=O)N(c2ccc([N+](=O)[O-])c(C(F)(F)F)c2)C1=O [nilutamide] (first compound 0.004 µM, partner dose 1 µM) | 79.4 | 340 | 96.2 | 88.7 | 127 | 79.1 | 90.3 | 96 | 48.4 | 95.8 | 106 | 89.6 | 76.8 | 158 | 49.2 | 170 | 134 | 55.4 | 84.8
O=C(O)[C@@H]1[O][Sb](=[O])([O][Sb]2(=[O])[O][C@H]([C@H](O)CO)[C@H](O)[C@H](C(=O)O)[O]2)[O][C@H]([C@H](O)CO)[C@@H]1O (some centres undefined) [stibogluconate] + O=C(Nc1cccc(Cl)c1)Nc1ncc(CCNc2ncnc3ccsc23)s1 [SNS314] (first compound 2 µM, partner dose 0.0008 µM) | 164 | 78.6 | 83.8 | 21.4 | 281 | 155 | 165 | 29.3 | 96 | 99.2 | 75.1 | 121 | 95.4 | 146 | 44.4 | 96.6 | 45.9 | 24.4 | 136
CS(=O)(=O)CCNCc1ccc(-c2ccc3ncnc(Nc4ccc(OCc5cccc(F)c5)c(Cl)c4)c3c2)o1 [lapatinib] + C=CCn1c(=O)c2cnc(Nc3ccc(N4CCN(C)CC4)cc3)nc2n1-c1cccc(C(C)(C)O)n1 [MK1775] (first compound 0.8 µM, partner dose 0.02 µM) | 115 | 108 | 104 | 168 | 87.7 | 110 | 117 | 103 | 86.7 | 124 | 225 | 38.1 | 47.7 | 45.6 | 116 | 191 | 94.8 | 51.1 | 132
O=C(O)[C@@H]1[O][Sb](=[O])([O][Sb]2(=[O])[O][C@H]([C@H](O)CO)[C@H](O)[C@H](C(=O)O)[O]2)[O][C@H]([C@H](O)CO)[C@@H]1O (some centres undefined) [stibogluconate] + CC1(C)NC(=O)N(c2ccc([N+](=O)[O-])c(C(F)(F)F)c2)C1=O [nilutamide] (first compound 2 µM, partner dose 1 µM) | 86.5 | 72 | 91.2 | 66.9 | 92.1 | 48.7 | 107 | 63.8 | 112 | 81.1 | 174 | 23.5 | 87.1 | 134 | 46.7 | 139 | 177 | 130 | 85.7
Nc1ccn([C@@H]2O[C@H](CO)[C@@H](O)C2(F)F)c(=O)n1 [gemcitabine] + Cc1ccc(NC(=O)c2cccc(N(C)C)c2)cc1NC(=O)c1ccc(O)cc1 [ZM336372] (first compound 0.0004 µM, partner dose 2 µM) | 308 | 155 | 197 | 130 | 133 | 50.4 | 94 | 136 | 221 | 133 | 146 | 190 | 31.3 | 107 | 62.4 | 180 | 47.3 | 69.6 | 169
CC(C)C[C@H](NC(=O)[C@H](Cc1ccccc1)NC(=O)c1cnccn1)B(O)O [Bortezomib] + NCC(=O)Nc1ccc(-n2nc(C(F)(F)F)cc2-c2ccc3c(ccc4ccccc43)c2)cc1 [OSU03012] (first compound 0.001 µM, partner dose 1 µM) | 642 | 253 | 31.3 | 2520 | 149 | 700 | 179 | 145 | 148 | 183 | 162 | 99.4 | 102 | 810 | 119 | 126 | 126 | 167 | 105
CCCS(=O)(=O)Nc1ccc(F)c(C(=O)c2c[nH]c3ncc(Cl)cc23)c1F + CN(C)S(=O)(=O)c1ccc2c(c1)/C(=C/c1cc3c([nH]1)CCCC3)C(=O)N2 [SU6656] (first compound 0.08 µM, partner dose 0.4 µM) | 79.5 | 76.5 | 82.2 | 164 | 189 | 127 | 74.5 | 126 | 179 | 108 | 190 | 76.2 | 109 | 137 | 99.2 | 119 | 184 | 65.8 | 109
CNC(=O)c1cc(Oc2ccc(NC(=O)Nc3ccc(Cl)c(C(F)(F)F)c3)cc2)ccn1 [sorafenib] + Cn1cncc1[C@@](N)(c1ccc(Cl)cc1)c1ccc2c(c1)c(-c1cccc(Cl)c1)cc(=O)n2C [tipifarnib] (first compound 0.4 µM, partner dose 0.01 µM) | 179 | 82.1 | 115 | 120 | 104 | 144 | 176 | 94.4 | 143 | 94.3 | 111 | 47.5 | 74.6 | 81.3 | 159 | 213 | 51.2 | 357 | 128
Nc1ncn([C@H]2C[C@H](O)[C@@H](CO)O2)c(=O)n1 [decitabine] + C=CCn1c(=O)c2cnc(Nc3ccc(N4CCN(C)CC4)cc3)nc2n1-c1cccc(C(C)(C)O)n1 [MK1775] (first compound 0.1 µM, partner dose 0.02 µM) | 46.6 | 209 | 123 | 40.8 | 197 | 126 | 87.6 | 105 | 214 | 135 | 57 | 52.5 | 104 | 135 | 278 | 72.8 | 37.1 | 24.3 | 83.3
O=C(O)c1ccc2c(c1)nc(Nc1cccc(Cl)c1)c1ccncc12 + COc1cc(Nc2ncc(F)c(Nc3ccc4c(n3)NC(=O)C(C)(C)O4)n2)cc(OC)c1OC [Tamatinib] (first compound 0.4 µM, partner dose 0.4 µM) | 91.8 | 20.3 | 106 | 173 | 175 | 122 | 107 | 111 | 86.4 | 113 | 302 | 300 | 80.6 | 154 | 115 | 163 | 219 | 205 | 84.5
Nc1nc(F)nc2c1ncn2[C@@H]1O[C@H](CO)[C@@H](O)[C@@H]1O [fludarabine] + O=C(Nc1cccc(Cl)c1)Nc1ncc(CCNc2ncnc3ccsc23)s1 [SNS314] (first compound 0.2 µM, partner dose 0.0008 µM) | 788 | 125 | 62 | 5650 | 173 | 222 | 180 | 111 | 32.5 | 104 | 117 | 106 | 76.1 | 90.3 | 67.6 | 225 | 100 | 41.4 | 65.9
CCCS(=O)(=O)Nc1ccc(F)c(C(=O)c2c[nH]c3ncc(Cl)cc23)c1F + OCCn1cc(-c2cnc3nnn(Cc4ccc5ncccc5c4)c3n2)cn1 [PF04217903] (first compound 0.08 µM, partner dose 1 µM) | 111 | 77.2 | 87.7 | 275 | 29.9 | 111 | 119 | 93.2 | 57 | 93.1 | 49.9 | 81.4 | 150 | 152 | 43.1 | 97.6 | 87.6 | 66.5 | 73.7
CCCS(=O)(=O)Nc1ccc(F)c(C(=O)c2c[nH]c3ncc(Cl)cc23)c1F + O=C(Nc1cccc(Cl)c1)Nc1ncc(CCNc2ncnc3ccsc23)s1 [SNS314] (first compound 0.08 µM, partner dose 0.0008 µM) | 90 | 88.8 | 54.4 | 247 | 61.3 | 111 | 98.3 | 23.1 | 107 | 107 | 85.7 | 29.7 | 146 | 131 | 47.8 | 210 | 45.5 | 35.9 | 66.8

An excerpt of these results, in markdown.

| SMILES | cleaved PARP positive nuclei fraction (501Mel) [%] | cleaved PARP positive nuclei fraction (A101D) [%] | cleaved PARP positive nuclei fraction (A2058) [%] | cleaved PARP positive nuclei fraction (A375) [%] | cleaved PARP positive nuclei fraction (C32) [%] | cleaved PARP positive nuclei fraction (CBRC008) [%] | cleaved PARP positive nuclei fraction (CBRC013) [%] | cleaved PARP positive nuclei fraction (CBRC014) [%] | cleaved PARP positive nuclei fraction (CBRC016) [%] | cleaved PARP positive nuclei fraction (CBRC017) [%] | cleaved PARP positive nuclei fraction (COLO792) [%] | cleaved PARP positive nuclei fraction (COLO800) [%] | cleaved PARP positive nuclei fraction (COLO829) [%] | cleaved PARP positive nuclei fraction (G361) [%] | cleaved PARP positive nuclei fraction (IPC-298) [%] | cleaved PARP positive nuclei fraction (IST-MEL1) [%] | cleaved PARP positive nuclei fraction (LB2518-MEL) [%] | cleaved PARP positive nuclei fraction (LOXIMVI) [%] | cleaved PARP positive nuclei fraction (MEL-HO) [%] |
| --- | --- | --- | --- | --- | --- | --- | --- | --- | --- | --- | --- | --- | --- | --- | --- | --- | --- | --- | --- |
| Nc1ccn([C@@H]2O[C@H](CO)[C@@H](O)C2(F)F)c(=O)n1 [gemcitabine] + Cc1ccc(NC(=O)c2cccc(N(C)C)c2)cc1NC(=O)c1ccc(O)cc1 [ZM336372] (first compound 0.0004 µM, partner dose 2 µM) | 308 | 155 | 197 | 130 | 133 | 50.4 | 94 | 136 | 221 | 133 | 146 | 190 | 31.3 | 107 | 62.4 | 180 | 47.3 | 69.6 | 169 |
| CC(C)C[C@H](NC(=O)[C@H](Cc1ccccc1)NC(=O)c1cnccn1)B(O)O [Bortezomib] + NCC(=O)Nc1ccc(-n2nc(C(F)(F)F)cc2-c2ccc3c(ccc4ccccc43)c2)cc1 [OSU03012] (first compound 0.001 µM, partner dose 1 µM) | 642 | 253 | 31.3 | 2520 | 149 | 700 | 179 | 145 | 148 | 183 | 162 | 99.4 | 102 | 810 | 119 | 126 | 126 | 167 | 105 |
